Experimental data reported in patent US20190352422A1 (PCM TARGETECH, published 2019).
These are yes or no findings as the source states them, for the method shown. Some results given as binding are weak or reduced against the parent protein; the word gives no strength.

By UniProt entry, the sequences of proteins in these tests, tags left out. Residues count along the entry.
UniProt Q04912, residues 25-1400: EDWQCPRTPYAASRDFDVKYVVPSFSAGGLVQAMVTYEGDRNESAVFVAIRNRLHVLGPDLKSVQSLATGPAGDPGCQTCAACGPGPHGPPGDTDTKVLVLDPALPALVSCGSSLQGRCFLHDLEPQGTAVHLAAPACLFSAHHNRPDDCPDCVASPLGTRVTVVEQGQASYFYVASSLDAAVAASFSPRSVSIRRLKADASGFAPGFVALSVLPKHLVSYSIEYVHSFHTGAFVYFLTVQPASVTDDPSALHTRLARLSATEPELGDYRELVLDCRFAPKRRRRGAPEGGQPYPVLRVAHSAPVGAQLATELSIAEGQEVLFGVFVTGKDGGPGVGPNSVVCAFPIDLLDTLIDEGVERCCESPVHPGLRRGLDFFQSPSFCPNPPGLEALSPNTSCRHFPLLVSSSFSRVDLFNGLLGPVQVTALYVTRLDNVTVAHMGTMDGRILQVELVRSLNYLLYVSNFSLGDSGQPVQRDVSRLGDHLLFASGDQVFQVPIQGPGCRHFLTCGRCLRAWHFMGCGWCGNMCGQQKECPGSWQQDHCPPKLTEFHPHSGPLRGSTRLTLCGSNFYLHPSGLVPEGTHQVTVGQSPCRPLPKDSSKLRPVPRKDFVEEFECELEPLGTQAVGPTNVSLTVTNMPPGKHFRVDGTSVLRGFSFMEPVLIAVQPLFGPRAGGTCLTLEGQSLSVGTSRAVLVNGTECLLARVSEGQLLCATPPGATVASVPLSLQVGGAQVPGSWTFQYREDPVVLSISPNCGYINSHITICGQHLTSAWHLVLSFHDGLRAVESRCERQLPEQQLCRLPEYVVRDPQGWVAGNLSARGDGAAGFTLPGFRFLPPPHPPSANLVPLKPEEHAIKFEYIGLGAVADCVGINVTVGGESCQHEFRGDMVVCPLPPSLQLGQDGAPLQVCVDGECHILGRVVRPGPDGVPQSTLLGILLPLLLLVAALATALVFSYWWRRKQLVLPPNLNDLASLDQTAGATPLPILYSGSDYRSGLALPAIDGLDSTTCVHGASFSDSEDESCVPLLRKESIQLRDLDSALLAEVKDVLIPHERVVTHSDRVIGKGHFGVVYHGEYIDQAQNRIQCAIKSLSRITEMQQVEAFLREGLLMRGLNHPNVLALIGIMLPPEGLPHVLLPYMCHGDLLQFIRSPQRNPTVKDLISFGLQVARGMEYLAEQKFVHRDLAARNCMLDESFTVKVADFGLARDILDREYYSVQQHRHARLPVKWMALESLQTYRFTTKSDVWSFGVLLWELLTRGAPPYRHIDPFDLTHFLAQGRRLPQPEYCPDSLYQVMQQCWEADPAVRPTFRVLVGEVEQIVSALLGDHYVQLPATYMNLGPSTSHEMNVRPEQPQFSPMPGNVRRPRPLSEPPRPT

Target: human RON receptor (human, UniProt Q04912 25-1400)
Assay: flow cytometry on HT29 cells

binding: binds
B1: Humanized PCM5B14 H2L4 (IgG1/κ, designated as H5B14) (antibody, V domains shown)
VH: QVQLVQSGAEVKKPGATVKISCKVSGYTFTDYHMDWVQQAPGKGLEWMGDINPNNGGAIYNQKFKGRVTITADTSTDTAYMELSSLRSEDTAVYYCARSHYDYAGGAWFAYWGQGTLVTVSR
VL: EIVMTQSPGTLSLSPGERATLSCKSSQSLLFSGNQKNYLAWYQQKPGQAPRLLIYWASTRASGIPDRFSGSGSGTDFTLTISRLEPEDFAVYYCQQYYSFPRTFGQGTKLEIKR
notes: also called H5B14H2L4; Humanized 5B14
